# Source: the supplement of paper PMC12819154, “High-throughput peptide-centric local stability assay extends protein–ligand identification to membrane proteins, tissues and bacteria” (Nature Structural & Molecular Biology, 2025)
# Amino acid sequences for entries named in this document (tags omitted). A change or cut given only in a name is not applied to a line headed by its entry.
# UniProt P49718: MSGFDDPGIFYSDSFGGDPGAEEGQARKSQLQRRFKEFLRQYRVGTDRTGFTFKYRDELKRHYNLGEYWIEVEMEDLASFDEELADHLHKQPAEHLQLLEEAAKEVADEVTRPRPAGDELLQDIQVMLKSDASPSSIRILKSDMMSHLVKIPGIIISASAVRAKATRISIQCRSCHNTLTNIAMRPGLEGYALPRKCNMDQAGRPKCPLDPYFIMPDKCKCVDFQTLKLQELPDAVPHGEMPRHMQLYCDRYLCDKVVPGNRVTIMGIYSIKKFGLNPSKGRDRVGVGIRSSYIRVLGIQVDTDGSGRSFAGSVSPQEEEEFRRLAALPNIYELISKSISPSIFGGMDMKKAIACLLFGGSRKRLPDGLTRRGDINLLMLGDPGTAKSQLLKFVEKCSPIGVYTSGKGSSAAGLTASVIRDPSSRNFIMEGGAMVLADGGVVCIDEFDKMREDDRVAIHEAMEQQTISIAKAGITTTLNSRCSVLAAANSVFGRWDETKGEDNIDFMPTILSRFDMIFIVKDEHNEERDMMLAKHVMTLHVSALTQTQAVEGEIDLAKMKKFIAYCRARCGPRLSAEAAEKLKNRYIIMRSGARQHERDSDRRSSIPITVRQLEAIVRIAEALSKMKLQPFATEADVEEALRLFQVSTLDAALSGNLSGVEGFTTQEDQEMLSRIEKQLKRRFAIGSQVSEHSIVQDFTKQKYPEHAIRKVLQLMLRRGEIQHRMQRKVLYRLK
# UniProt P52792, whole entry: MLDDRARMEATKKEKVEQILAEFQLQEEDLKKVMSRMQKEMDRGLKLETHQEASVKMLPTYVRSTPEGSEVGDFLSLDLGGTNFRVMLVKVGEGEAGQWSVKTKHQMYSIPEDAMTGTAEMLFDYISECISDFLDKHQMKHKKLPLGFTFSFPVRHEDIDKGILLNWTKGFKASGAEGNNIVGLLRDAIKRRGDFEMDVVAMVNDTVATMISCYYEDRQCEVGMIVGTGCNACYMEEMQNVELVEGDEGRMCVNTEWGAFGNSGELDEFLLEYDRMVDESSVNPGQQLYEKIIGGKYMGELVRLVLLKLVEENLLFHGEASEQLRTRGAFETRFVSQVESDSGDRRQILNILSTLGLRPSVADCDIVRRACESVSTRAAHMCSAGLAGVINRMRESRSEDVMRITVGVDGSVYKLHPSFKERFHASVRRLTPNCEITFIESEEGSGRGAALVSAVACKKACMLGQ
# UniProt P35700: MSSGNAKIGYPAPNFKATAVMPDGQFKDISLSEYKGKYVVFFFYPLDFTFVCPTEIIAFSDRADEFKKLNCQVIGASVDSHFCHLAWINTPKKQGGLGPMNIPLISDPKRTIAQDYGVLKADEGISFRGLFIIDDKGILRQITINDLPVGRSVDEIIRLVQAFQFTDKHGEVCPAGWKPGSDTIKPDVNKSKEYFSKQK
# UniProt P47740: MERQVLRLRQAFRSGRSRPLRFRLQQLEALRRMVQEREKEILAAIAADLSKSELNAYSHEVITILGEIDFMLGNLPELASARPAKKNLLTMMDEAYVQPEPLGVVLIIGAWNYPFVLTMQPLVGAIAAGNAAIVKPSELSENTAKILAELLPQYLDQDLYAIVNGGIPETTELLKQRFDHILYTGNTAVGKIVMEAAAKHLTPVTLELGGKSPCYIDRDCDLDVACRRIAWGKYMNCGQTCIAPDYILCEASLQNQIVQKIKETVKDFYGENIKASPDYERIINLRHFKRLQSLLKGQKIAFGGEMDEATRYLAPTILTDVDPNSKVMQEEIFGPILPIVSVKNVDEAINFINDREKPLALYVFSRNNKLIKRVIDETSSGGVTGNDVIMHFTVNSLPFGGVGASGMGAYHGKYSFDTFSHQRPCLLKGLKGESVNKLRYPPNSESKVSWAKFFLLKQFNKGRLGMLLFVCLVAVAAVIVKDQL
# UniProt P41209: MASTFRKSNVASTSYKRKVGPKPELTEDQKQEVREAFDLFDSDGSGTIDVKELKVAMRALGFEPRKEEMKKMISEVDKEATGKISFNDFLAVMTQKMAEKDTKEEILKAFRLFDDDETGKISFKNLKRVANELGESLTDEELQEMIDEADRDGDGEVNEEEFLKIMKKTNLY
# UniProt P49722: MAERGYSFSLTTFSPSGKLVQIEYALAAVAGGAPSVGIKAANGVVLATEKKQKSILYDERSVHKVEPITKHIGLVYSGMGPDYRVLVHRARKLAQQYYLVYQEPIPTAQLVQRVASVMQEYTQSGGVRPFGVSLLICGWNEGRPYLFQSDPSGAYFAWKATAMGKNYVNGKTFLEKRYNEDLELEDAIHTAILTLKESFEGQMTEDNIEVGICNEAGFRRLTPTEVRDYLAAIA
# UniProt P53810: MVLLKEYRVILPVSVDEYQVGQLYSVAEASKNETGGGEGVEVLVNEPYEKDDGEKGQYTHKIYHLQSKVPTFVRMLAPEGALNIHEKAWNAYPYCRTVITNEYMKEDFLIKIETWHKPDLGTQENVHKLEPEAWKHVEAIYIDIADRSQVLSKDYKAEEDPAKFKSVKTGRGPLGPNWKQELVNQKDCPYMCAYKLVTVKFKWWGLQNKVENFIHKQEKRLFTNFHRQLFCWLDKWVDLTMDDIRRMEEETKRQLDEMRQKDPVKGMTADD
# UniProt P50294: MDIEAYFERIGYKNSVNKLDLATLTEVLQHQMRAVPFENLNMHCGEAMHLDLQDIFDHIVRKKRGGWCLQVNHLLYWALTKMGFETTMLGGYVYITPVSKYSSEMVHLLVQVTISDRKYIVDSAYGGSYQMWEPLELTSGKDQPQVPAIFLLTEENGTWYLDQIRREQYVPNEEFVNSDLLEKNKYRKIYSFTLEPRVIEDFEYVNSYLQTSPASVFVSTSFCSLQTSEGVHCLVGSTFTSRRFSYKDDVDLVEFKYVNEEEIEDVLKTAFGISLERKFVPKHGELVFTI
# UniProt P50462: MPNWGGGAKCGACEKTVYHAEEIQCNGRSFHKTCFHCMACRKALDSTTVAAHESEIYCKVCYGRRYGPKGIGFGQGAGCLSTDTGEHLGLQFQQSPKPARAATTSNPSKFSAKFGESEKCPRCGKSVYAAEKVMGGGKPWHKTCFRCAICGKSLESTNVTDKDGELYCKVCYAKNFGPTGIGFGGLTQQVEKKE
# UniProt P42337, whole entry: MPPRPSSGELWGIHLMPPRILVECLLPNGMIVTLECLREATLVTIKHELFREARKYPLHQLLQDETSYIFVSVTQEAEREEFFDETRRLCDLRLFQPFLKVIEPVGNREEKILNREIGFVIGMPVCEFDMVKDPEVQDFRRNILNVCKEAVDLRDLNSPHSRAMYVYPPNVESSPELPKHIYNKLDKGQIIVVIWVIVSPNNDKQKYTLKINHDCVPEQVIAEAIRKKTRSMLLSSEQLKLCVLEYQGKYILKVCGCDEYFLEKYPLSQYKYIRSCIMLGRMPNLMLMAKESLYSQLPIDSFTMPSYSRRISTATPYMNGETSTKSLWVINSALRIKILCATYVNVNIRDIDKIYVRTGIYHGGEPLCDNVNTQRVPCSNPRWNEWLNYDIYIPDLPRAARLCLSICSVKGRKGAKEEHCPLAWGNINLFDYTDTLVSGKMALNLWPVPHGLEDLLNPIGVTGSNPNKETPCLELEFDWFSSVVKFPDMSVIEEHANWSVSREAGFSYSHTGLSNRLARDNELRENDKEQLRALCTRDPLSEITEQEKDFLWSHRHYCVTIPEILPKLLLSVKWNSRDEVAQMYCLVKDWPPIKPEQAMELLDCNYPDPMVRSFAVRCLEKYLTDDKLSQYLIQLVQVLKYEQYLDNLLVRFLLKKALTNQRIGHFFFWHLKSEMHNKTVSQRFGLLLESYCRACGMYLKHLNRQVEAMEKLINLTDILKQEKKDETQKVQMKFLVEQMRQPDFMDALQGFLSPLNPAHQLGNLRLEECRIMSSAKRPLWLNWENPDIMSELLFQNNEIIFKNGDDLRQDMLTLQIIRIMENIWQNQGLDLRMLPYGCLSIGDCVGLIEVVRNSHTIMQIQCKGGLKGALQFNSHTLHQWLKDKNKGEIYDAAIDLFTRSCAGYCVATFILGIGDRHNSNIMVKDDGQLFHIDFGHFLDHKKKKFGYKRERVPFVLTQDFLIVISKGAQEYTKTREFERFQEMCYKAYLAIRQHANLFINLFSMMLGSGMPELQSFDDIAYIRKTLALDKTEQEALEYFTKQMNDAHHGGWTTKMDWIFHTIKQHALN
# UniProt P47758: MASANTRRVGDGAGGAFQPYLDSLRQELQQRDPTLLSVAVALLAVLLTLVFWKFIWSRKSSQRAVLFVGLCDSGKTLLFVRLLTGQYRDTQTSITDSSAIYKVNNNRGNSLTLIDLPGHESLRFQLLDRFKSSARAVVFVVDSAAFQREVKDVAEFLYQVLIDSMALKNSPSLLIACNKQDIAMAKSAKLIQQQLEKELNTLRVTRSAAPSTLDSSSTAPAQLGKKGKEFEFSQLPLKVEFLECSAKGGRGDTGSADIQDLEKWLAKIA
# UniProt P52793: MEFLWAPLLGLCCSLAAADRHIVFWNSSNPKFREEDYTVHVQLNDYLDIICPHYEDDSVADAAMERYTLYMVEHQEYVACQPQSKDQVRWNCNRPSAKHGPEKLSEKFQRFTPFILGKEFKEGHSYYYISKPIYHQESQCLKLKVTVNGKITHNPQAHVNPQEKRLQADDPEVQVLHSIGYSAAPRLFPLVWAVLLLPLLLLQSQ
# UniProt P49717: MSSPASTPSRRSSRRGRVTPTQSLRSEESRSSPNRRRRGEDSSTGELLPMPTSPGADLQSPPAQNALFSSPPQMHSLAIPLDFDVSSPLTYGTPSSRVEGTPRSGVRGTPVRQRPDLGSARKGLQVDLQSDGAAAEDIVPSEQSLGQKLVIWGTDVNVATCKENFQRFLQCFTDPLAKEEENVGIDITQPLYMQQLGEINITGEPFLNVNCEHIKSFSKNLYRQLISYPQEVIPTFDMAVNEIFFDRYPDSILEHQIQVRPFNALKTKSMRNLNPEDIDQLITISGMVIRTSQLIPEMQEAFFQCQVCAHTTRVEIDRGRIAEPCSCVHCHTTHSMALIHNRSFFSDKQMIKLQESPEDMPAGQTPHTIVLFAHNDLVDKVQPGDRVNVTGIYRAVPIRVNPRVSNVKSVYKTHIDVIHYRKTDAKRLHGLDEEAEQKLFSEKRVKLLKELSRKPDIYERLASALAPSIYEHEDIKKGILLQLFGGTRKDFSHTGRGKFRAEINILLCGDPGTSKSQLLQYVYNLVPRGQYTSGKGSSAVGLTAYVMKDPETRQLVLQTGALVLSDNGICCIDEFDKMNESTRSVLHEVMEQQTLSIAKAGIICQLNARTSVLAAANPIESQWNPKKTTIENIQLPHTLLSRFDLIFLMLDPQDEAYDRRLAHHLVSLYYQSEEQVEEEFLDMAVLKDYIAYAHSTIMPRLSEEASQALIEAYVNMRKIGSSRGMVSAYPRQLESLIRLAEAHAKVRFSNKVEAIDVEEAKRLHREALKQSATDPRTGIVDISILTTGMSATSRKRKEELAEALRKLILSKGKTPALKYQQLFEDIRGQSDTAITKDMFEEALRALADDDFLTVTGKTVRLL
# UniProt P35428: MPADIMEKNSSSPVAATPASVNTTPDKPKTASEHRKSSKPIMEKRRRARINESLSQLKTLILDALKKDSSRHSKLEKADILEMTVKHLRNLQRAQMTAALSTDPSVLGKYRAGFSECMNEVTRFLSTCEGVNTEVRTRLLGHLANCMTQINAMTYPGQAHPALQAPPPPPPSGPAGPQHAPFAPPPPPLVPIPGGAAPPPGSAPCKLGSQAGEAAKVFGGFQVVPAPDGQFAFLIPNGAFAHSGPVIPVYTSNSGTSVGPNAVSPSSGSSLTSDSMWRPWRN
# UniProt P35639, whole entry: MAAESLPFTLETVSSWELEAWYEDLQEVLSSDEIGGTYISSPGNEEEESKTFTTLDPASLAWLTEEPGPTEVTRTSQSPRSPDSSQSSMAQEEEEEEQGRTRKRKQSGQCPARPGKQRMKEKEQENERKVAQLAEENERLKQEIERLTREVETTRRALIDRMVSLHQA
# UniProt P52432, whole entry: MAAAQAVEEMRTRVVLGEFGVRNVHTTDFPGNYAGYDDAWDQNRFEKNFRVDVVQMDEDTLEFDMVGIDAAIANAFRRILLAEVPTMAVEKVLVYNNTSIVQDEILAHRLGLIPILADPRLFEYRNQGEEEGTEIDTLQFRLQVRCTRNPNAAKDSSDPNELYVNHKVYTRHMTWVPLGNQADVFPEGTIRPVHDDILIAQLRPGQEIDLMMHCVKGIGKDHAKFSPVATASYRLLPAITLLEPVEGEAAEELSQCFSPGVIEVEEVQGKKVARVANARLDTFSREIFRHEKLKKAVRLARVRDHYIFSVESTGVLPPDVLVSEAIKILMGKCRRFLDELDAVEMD
# UniProt P35550: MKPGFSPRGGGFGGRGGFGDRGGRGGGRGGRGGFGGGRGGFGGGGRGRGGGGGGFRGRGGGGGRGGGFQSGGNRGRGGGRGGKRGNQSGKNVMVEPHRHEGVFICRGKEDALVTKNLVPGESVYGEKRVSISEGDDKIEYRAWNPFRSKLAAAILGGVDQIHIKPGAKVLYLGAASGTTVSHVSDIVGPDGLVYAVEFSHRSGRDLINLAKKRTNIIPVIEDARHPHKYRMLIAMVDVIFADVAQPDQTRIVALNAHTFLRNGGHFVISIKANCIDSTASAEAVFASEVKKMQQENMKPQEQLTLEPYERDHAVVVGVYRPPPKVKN
# This is one part of the list. Most entries show no effect beyond the scatter of the controls.
# Compound: CN[C@@H]1C[C@H]2O[C@@](C)([C@@H]1OC)n1c3ccccc3c3c4c(c5c6ccccc6n2c5c31)C(=O)NC4 [staurosporine]
# Test: log2 fold change of tryptic peptide abundance, ligand vs vehicle (limited proteolysis) (log2 ratio); higher = more trypsin-susceptible (destabilized)
# Settings: ligand concentration: 20 uM; sample: mouse liver crude lysate; replicate design: treated separately
row,Target,log2 fold change
1,"UniProt P40124 (peptide sequence: VPTISINKTDGCHAYLSK, peptide start residue: 404)",0.485
2,"UniProt P48377 (peptide sequence: SVVQATPQTK, peptide start residue: 240)",-0.331
3,"UniProt P49718 (peptide sequence: FDMIFIVKDEHNEER, peptide start residue: 514)",0.246
4,"UniProt P53568 (peptide sequence: VNQLKEENER, peptide start residue: 94)",-0.299
5,"UniProt P50427 (peptide sequence: RPLTPEAEPR, peptide start residue: 520)",0.538
6,"UniProt P52792 (peptide sequence: TRGAFETR, peptide start residue: 326)",-0.451
7,"UniProt P39447 (peptide sequence: HALLDVTPNAVDR, peptide start residue: 703)",0.447
8,"UniProt P35700 (peptide sequence: DISLSEYK, peptide start residue: 28)",-0.906
9,"UniProt P46656 (peptide sequence: DGETLTTK, peptide start residue: 79)",-0.287
10,"UniProt P41230 (peptide sequence: DLPVGLEELR, peptide start residue: 1060)",0.209
11,"UniProt P47740 (peptide sequence: SPCYIDRDCDLDVACRR, peptide start residue: 212)",0.734
12,"UniProt P45481 (peptide sequence: SNPQLMAAFIK, peptide start residue: 2093)",0.207
13,"UniProt P41209 (peptide sequence: LFDDDETGK, peptide start residue: 112)",-0.0978
14,"UniProt P40630 (peptide sequence: AYKEAVSK, peptide start residue: 108)",-0.137
15,"UniProt P47753 (peptide sequence: VSDEEKVR, peptide start residue: 8)",0.692
16,"UniProt P49722 (peptide sequence: SVHKVEPITK, peptide start residue: 61)",-0.273

# Exported with tabs: entries from further up.
row	Target	log2 fold change
8	UniProt P35700 (peptide sequence: DISLSEYK, peptide start residue: 28)	-0.906
16	UniProt P49722 (peptide sequence: SVHKVEPITK, peptide start residue: 61)	-0.273

# (further entries)

row,Target,log2 fold change
1,"UniProt P51448 (peptide sequence: DSLYAEVQK, peptide start residue: 154)",0.202
2,"UniProt P47199 (peptide sequence: LVLQNGAHEVFNHKEANYIDKIK, peptide start residue: 188)",0.703
3,"UniProt P53810 (peptide sequence: QKDPVKGMTADD, peptide start residue: 260)",-0.585
4,"UniProt P48453 (peptide sequence: AHEAQDAGYR, peptide start residue: 280)",0.287
5,"UniProt P50294 (peptide sequence: TAFGISLER, peptide start residue: 269)",-0.0192
6,"UniProt P50462 (peptide sequence: VMGGGKPWHK, peptide start residue: 133)",0.332
7,"UniProt P42337 (peptide sequence: EAGFSYSHTGLSNR, peptide start residue: 503)",-0.125
8,"UniProt P47758 (peptide sequence: SAAPSTLDSSSTAPAQLGKK, peptide start residue: 207)",-0.0991
9,"UniProt P52793 (peptide sequence: FTPFILGK, peptide start residue: 111)",-0.00111
10,"UniProt P49717 (peptide sequence: LSEEASQALIEAYVNMRK, peptide start residue: 701)",-0.22
11,"UniProt P35428 (peptide sequence: ADILEMTVK, peptide start residue: 78)",-0.204
12,"UniProt P35639 (peptide sequence: LTREVETTR, peptide start residue: 147)",-0.0422
13,"UniProt P52432 (peptide sequence: VVLGEFGVR, peptide start residue: 14)",-0.0759
14,"UniProt P35550 (peptide sequence: SKLAAAILGGVDQIHIKPGAK, peptide start residue: 148)",-0.11
15,"UniProt P43276 (peptide sequence: ALAAGGYDVEKNNSR, peptide start residue: 65)",-0.118
